Experimental data as given in paper PMC11280224.
Results are given in words; binding and its absence hold for the method and conditions named. In cells and extracts the contact can be indirect. For some assays here: Sequences can lack the tags named with a protein.

The chains behind the UniProt entries cited, without tags or fusion partners.
UniProt Q7Z434: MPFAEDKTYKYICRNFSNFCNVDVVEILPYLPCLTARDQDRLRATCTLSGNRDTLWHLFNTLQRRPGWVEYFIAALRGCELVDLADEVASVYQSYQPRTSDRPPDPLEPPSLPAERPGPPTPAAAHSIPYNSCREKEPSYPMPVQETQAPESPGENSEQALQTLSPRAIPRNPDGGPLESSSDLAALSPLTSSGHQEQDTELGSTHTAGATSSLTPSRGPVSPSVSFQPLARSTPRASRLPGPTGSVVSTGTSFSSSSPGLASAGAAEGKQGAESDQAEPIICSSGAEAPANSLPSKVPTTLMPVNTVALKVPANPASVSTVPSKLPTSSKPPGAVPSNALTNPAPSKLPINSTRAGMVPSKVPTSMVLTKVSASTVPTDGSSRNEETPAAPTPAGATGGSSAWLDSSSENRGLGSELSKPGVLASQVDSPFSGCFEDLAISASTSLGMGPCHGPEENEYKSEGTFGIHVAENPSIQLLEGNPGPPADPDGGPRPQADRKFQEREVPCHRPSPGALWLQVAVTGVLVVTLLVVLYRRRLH

Columns and labels:
Assay in all cases: co-IP; HEK293T cells transfected with a Flag-tagged protein; lysate immunoprecipitated with anti-Flag agarose beads; eluate blotted with anti-USP26 antibody; precipitates washed three times with lysis buffer containing 500 mM NaCl
Flag-IRF3 = biological target: T1, Flag-IRF3 (UniProt Q14653)
T1 sequence: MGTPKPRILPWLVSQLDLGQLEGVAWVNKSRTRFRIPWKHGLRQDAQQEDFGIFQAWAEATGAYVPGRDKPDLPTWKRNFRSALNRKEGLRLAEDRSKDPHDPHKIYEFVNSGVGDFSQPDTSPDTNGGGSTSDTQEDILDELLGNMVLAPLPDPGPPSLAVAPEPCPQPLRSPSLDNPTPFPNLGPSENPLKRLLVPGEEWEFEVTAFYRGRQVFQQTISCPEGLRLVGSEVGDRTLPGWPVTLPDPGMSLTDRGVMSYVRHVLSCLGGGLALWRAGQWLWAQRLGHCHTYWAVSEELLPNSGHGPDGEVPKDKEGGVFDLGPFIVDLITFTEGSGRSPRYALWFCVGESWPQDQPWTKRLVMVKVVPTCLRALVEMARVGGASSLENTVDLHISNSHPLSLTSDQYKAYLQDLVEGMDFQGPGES

Flag-MAVS = Flag-MAVS (UniProt Q7Z434)
Flag-MDA5 = biological target: T2, Flag-MDA5 (UniProt Q9BYX4)
T2 sequence: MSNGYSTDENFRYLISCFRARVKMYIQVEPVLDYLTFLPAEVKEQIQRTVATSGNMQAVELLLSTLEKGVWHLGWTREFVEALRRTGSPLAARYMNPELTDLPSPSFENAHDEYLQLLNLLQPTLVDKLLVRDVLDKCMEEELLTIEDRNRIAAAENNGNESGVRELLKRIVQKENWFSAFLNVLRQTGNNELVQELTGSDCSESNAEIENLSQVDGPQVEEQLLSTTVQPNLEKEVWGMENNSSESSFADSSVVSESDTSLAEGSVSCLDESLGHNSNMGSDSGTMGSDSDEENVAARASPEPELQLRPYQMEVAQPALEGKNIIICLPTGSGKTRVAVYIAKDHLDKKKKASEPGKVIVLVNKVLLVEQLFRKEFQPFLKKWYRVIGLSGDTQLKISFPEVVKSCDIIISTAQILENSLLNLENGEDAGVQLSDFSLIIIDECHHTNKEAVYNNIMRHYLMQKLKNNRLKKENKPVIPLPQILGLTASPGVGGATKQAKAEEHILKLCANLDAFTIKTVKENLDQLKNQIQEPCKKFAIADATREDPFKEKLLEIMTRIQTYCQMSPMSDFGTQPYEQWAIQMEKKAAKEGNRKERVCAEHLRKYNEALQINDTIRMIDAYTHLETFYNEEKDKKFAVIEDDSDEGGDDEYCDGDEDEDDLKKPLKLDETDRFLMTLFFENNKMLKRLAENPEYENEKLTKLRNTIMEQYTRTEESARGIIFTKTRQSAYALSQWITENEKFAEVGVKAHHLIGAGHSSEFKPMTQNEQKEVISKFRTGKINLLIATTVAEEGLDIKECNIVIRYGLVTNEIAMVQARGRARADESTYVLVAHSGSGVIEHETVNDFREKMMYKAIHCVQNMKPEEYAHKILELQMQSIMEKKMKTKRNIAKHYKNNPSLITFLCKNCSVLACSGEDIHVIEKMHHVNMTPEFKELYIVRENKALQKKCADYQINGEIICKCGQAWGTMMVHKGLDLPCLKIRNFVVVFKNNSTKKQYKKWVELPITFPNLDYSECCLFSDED

Flag-RIG-I = biological target: T3, Flag-RIG-I (UniProt O95786)
T3 sequence: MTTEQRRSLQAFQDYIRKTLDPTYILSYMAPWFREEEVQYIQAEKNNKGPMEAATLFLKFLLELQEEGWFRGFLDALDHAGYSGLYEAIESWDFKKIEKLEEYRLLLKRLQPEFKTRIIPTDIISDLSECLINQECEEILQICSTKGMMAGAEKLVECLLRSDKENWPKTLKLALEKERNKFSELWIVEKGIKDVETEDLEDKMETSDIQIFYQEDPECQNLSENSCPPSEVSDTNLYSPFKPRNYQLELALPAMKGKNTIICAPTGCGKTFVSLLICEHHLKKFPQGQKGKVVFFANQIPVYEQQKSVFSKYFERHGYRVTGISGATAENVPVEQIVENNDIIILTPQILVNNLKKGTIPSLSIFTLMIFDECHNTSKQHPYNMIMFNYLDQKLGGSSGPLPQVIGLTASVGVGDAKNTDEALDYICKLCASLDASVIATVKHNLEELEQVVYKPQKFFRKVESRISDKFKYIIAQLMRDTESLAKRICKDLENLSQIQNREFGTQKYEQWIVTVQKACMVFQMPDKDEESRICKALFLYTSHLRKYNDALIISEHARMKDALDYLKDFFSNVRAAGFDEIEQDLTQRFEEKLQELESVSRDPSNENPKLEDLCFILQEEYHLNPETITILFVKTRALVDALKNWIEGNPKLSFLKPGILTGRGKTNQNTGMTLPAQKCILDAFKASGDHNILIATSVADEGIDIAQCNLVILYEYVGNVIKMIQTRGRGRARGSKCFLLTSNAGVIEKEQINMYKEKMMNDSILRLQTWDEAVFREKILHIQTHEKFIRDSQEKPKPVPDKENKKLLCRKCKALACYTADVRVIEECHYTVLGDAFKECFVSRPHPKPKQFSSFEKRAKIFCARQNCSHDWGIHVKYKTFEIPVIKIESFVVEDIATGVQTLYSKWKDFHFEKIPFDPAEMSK

Flag-TBK1 = biological target: T4, Flag-TBK1 (UniProt Q9UHD2)
T4 sequence: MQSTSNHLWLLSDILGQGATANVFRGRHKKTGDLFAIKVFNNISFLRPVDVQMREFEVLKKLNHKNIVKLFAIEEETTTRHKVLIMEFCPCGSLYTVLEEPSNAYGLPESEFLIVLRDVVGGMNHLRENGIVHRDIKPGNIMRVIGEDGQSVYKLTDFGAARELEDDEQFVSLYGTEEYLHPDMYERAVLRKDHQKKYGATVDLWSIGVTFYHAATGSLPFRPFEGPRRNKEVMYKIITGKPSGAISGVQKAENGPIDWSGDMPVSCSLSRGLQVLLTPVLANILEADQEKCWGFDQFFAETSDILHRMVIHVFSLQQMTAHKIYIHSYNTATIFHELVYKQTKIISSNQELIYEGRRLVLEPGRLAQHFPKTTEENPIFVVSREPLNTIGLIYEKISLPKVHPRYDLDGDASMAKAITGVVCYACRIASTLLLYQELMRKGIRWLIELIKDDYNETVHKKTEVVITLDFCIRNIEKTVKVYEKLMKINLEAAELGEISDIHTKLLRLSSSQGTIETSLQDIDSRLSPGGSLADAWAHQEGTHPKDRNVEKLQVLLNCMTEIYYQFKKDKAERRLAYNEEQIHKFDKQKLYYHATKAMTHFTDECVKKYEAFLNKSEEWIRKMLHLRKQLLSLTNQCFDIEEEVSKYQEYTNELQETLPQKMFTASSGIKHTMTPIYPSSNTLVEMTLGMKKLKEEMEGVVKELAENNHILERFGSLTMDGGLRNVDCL

binding (Flag-IRF3): no binding | binding (Flag-MAVS): no binding | binding (Flag-MDA5): no binding | binding (Flag-RIG-I): no binding | binding (Flag-TBK1): no binding
B1: Ubiquitin-specific protease 26 (USP26) (enzyme, UniProt Q9BXU7 1-913)
chain: MAALFLRGFVQIGNCKTGISKSKEAFIEAVERKKKDRLVLYFKSGKYSTFRLSDNIQNVVLKSYRGNQNHLHLTLQNNNGLFIEGLSSTDAEQLKIFLDRVHQNEVQPPVRPGKGGSVFSSTTQKEINKTSFHKVDEKSSSKSFEIAKGSGTGVLQRMPLLTSKLTLTCGELSENQHKKRKRMLSSSSEMNEEFLKENNSVEYKKSKADCSRCVSYNREKQLKLKELEENKKLECESSCIMNATGNPYLDDIGLLQALTEKMVLVFLLQQGYSDGYTKWDKLKLFFELFPEKICHGLPNLGNTCYMNAVLQSLLSIPSFADDLLNQSFPWGKIPLNALTMCLARLLFFKDTYNIEIKEMLLLNLKKAISAAAEIFHGNAQNDAHEFLAHCLDQLKDNMEKLNTIWKPKSEFGEDNFPKQVFADDPDTSGFSCPVITNFELELLHSIACKACGQVILKTELNNYLSINLPQRIKAHPSSIQSTFDLFFGAEELEYKCAKCEHKTSVGVHSFSRLPRILIVHLKRYSLNEFCALKKNDQEVIISKYLKVSSHCNEGTRPPLPLSEDGEITDFQLLKVIRKMTSGNISVSWPATKESKDILAPHIGSDKESEQKKGQTVFKGASRRQQQKYLGKNSKPNELESVYSGDRAFIEKEPLAHLMTYLEDTSLCQFHKAGGKPASSPGTPLSKVDFQTVPENPKRKKYVKTSKFVAFDRIINPTKDLYEDKNIRIPERFQKVSEQTQQCDGMRICEQAPQQALPQSFPKPGTQGHTKNLLRPTKLNLQKSNRNSLLALGSNKNPRNKDILDKIKSKAKETKRNDDKGDHTYRLISVVSHLGKTLKSGHYICDAYDFEKQIWFTYDDMRVLGIQEAQMQEDRRCTGYIFFYMHNEIFEEMLKREENAQLNSKEVEETLQKE
